Assay results as given in patent US10577368B2 (The United States of America, as represented by the …, priority 2013, dated 2020).

System: chronic constriction injury (CCI) model, mechano-allodynia
Experiment: Morphine analgesic tolerance in CCI model, co-administration with A3AR agonist
Conditions: mouse, in vivo

Structure (SMILES): CN1CC[C@]23c4c5ccc(O)c4O[C@H]2[C@@H](O)C=C[C@H]3[C@H]1C5 [morphine]
- Plasma levels of morphine in the presence or absence of the A3AR agonist: similar
